# According to publication PMC12040169 (PLOS Biology, 2025):
# Some of the results follow.
# Tested on: T1, CTL2-GFP (C. trachomatis L2/434/Bu, GFP-expressing)
# T1 construct: L2/434/Bu, GFP-expressing
# Parameters: species or system HeLa; Intracellular C. trachomatis growth in HeLa cells, bulk GFP fluorescence relative to DMSO
# Conditions: bulk GFP, single well; 28.5 h, 10 µM; inhibitor
row,SMILES,% of control remaining [%]
1,O=C(CSc1ccc2ccccc2c1)Nc1ccc(Cl)c(C(=O)O)c1 [CBK268239],117.888
2,O=C(CSc1cccc2c(SCC(=O)c3ccccc3)cccc12)c1ccccc1 [CBK261255],100
3,O=C(CCc1ccc(S(=O)(=O)NC2CCCCC2)cc1)Nc1ccc2c(c1)OCCO2 [CBK266845],152.443
4,COc1ncc(-c2nccnc2N2CCCC2CO)c(OC)n1 (centres unmarked) [CBK036638],113.49
5,c1cnc(N2CCN(Cc3ccc4c(c3)OCO4)CC2)c(OC2CCCCC2)n1 [CBK082833T],105.816
6,Brc1cn2ccnc2c(Nc2ccc3[nH]ccc3c2)n1 [CBK037449],99.8018
7,CCOc1oc2cc(O)ccc2c1C(=O)CSC1CCCCC1 [CBK022262],95.9098
8,CS(=O)(=O)c1ccc(-c2ccc(OCC3CCN(C(=O)c4cccc(C#N)c4)CC3)nc2)cc1 [CBK162283],98.9259
9,CCCc1nn(CC(=O)OC)c(=O)c2cc3ccsc3n12 [CBK284144],108.775
10,O=C(O)C1C2C=CC(O2)C1C(=O)Nc1ccc(S(=O)(=O)N2CCc3ccccc32)cc1 (centres unmarked) [CBK268176],113.711
11,CC(NC(=O)C1CCN(CCN2C(=O)c3ccccc3C2=O)CC1)c1ccc(F)cc1 (centres unmarked) [CBK148750],110.115
12,O=C(CC(NC(=O)c1ccccc1)c1ccccc1)Nc1cccc2ccccc12 (centres unmarked) [CBK263901],119.758
13,COc1ccc(C(=O)Nc2ccc(N3CCN(C(=O)C(C)(C)C)CC3)cc2)cc1 [CBK270266],115.369
14,CCC(=O)N1CCN(CCNC=C2C(=O)CC(c3cccs3)CC2=O)CC1 (centres unmarked) [CBK264817],117.89
15,CN1CCC(=NNC(=O)CN(c2ccc(Oc3ccccc3)cc2)S(C)(=O)=O)CC1 [CBK262338],100
16,CC(C)N1CCCC(CNC(=O)C2Cc3cc(Cl)ccc3O2)C1 (centres unmarked) [CBK282686],115.264
17,O=S(=O)(CCN1CCN(Cc2ccccc2)CC1)c1ccc(F)cc1 [CBK074809],61.9897
18,CC(C)NC(=O)C1(Cc2ccc(-c3ccccc3F)cc2)CCN(C(=O)C(C)C)CC1 [CBK285754],118.157
19,Cc1cc(S(=O)(=O)Nc2ccccc2-c2nncn2C)c(C)o1 [CBK306414],107.123
20,c1ccc(CCN2CCN(Cc3cccnc3)CC2)cc1 [CBK126424],125.174
21,CSc1nc2ccc(S(=O)(=O)NCCOc3ccc(Cl)cc3)cc2s1 [CBK268219],125.255
22,Cc1nn(-c2ccc(F)cc2)c2[nH]c(=O)c(CNC3CC3)cc12 [CBK283121],119.395
23,O=C(c1ccc(OC(F)(F)F)cc1)N1CCC2(CCCNC2)C1 (centres unmarked) [CBK137156C],111.786
24,CN(C)CCn1c(C(=O)O)cc2ccccc21 [CBK268234C],91.7888
25,O=C(NC(c1ccccc1)c1ccccc1)N1CCCC(CO)C1 (centres unmarked) [CBK156036],119.528

row,SMILES,% of control remaining [%]
1,O=C1NC2(CCSCC2)Oc2ccccc21 [CBK007488],135.036
2,Cc1ccc(C(=O)NC(C)c2nc3ccccc3n2Cc2ccc(C(=O)O)o2)cc1 (centres unmarked) [CBK295159],103.711
3,O=S(=O)(Nc1cccc(-c2nnn[nH]2)c1)c1ccc(F)cc1 [CBK050470],108.222
4,O=C(NC(Nc1cccc(C(F)(F)F)c1)C(=O)c1ccccc1)c1ccc(Cl)cc1 (centres unmarked) [CBK263585],117.984
5,Cc1csc(NC(=O)Cc2ccccc2F)n1 [CBK288252],116.45
6,C=CCN(c1ccc(C(=O)O)cc1)S(=O)(=O)c1ccc(/C=C/C(=O)O)cc1 [CBK263364],121.525
7,CC(C(=O)NC1(C#N)CCCCC1)N1CCOC(c2nccs2)C1 (centres unmarked) [CBK305299],130.47
8,Cc1nc(-c2ccccc2)c(CC(=O)N(C)CCN(C)C)s1 [CBK282725],150.41
9,OCc1ccccc1-c1nccnc1NCc1ccc2c(c1)OCO2 [CBK038046],98.6049
10,O=S(=O)(c1ccc(C2=CSC3=NCCN23)cc1)N1CCOCC1 [CBK019381],106.965
11,COc1cccc(C(CNS(=O)(=O)c2ccc3c(c2)OCCCO3)N(C)C)c1 (centres unmarked) [CBK298270],138.099
12,COC(=O)Cn1c(-c2ccc(F)cc2)cc2cccnc21 [CBK282763],121.569
13,O=C(Cc1ccc(Cl)c(Cl)c1)NC(c1ccccc1)c1ccccn1 (centres unmarked) [CBK144110],100
14,O=C(Nc1ccc(N2CCNCC2)nc1)C1CCCO1 (centres unmarked) [CBK004748T],136.101
15,CC(=O)N1CCc2sccc2C1c1ccc(NC(=O)c2ccco2)cc1 (centres unmarked) [CBK286199],104.973
16,CC(C)(CN)CN(Cc1ccccc1C(F)(F)F)C(=O)Nc1ccc(C(C)(C)C)cc1 [CBK026828C],96.4652
17,CN1CCN(S(=O)(=O)c2cccc(C(F)(F)F)c2)CC1 [CBK062425],101.954
18,Cc1ccc(C(=O)N2CCC(Cc3ccccc3-c3ccccc3)(C(=O)N(C)C)CC2)s1 [CBK285677],124.932
19,CCn1cncc1CN1CCN(CC2(c3ccc(C)cc3)CC2)CC1 [CBK283307],130.161
20,CCNC(=O)C1(Cc2ccc(-c3cccs3)cc2)CCN(C(=O)Cc2ccccc2)CC1 [CBK285795],89.5094
21,COc1cc(C#N)ccc1Oc1nnnn1-c1ccccc1 [CBK002571],91.212
22,CCn1c(=O)[nH]c(=O)c2cnc(-c3ccc(OC)cc3)nc21 [CBK291259],91.2336
23,CC(C)(C)c1csc(C(=Cc2ccc(C#N)cc2)C(N)=O)n1 [CBK001154],94.0183
24,Cc1nc(-c2ccc(CCNC(=O)c3cc(O)nc4ccccc34)s2)cs1 [CBK297720],90.442
25,COc1ccc(-n2cc(-c3ccc(F)cc3)nn2)cc1OC [CBK113110],115.203

# An excerpt from above in order of SMILES length, ascending:
row,SMILES,% of control remaining [%]
19,CCn1cncc1CN1CCN(CC2(c3ccc(C)cc3)CC2)CC1 [CBK283307],130.161
7,CC(C(=O)NC1(C#N)CCCCC1)N1CCOC(c2nccs2)C1 (centres unmarked) [CBK305299],130.47
11,COc1cccc(C(CNS(=O)(=O)c2ccc3c(c2)OCCCO3)N(C)C)c1 (centres unmarked) [CBK298270],138.099
